The experiment has as its target FLAG-PGRMC1 (a.a. 44-195) (human) (UniProt O00264). As to the kind of experiment: co-IP; in vitro binding assay: 1 ug purified CYP3A4 with 10 ug FLAG-PGRMC1 (a.a. 44-195), treated with or without GL or GlucoGL, in 500 uL of 20 mM HEPES-NaOH pH 7.9, 100 mM NaCl, 0.2 mM EDTA, 10% glycerol, 0.1% NP40, 60 min at room temperature; captured on anti-FLAG (M2) agarose, eluted with FLAG peptide; western blotting; both purified. On the technique in general: Immunoblotting shows a protein as a band on a membrane.

Chains of the proteins cited; added tags and fusions are not shown. Lines headed by an entry give the natural chain unless they say otherwise; changes in a name come on top. Residues count along the entry.
UniProt O00264, residues 44-195: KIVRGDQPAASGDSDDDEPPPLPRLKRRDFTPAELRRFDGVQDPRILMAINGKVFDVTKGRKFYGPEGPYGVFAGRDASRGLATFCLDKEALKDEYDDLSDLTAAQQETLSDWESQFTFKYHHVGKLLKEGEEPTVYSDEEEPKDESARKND
UniProt P08684: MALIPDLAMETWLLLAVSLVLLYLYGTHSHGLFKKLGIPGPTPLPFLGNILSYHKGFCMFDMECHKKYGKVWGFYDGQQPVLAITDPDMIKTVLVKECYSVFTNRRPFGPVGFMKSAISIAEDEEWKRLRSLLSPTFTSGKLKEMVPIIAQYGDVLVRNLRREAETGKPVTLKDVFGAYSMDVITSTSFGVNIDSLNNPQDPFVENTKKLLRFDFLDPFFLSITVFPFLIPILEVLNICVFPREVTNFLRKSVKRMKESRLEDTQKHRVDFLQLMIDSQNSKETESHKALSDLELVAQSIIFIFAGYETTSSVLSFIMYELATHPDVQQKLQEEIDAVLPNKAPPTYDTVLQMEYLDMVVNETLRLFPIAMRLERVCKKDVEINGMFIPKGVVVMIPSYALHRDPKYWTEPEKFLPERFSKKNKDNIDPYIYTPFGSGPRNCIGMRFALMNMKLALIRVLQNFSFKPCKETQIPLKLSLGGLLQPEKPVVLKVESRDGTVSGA

Results are given in words; binding and its absence hold for the method and conditions named. In cells and extracts the contact can be indirect. A result given as binding can be weak or reduced; the word gives no strength.

With “cytochrome P450 3A4 (CYP3A4) (from UniProt P08684) (enzyme)”, the binding entry was “binds”.
